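Assay of Toxoplasma gondii numbers, read through their beta-galactosidase reporter with a colour substrate. Tested at 50 µM. Higher reads as fewer parasites (inferred from which compounds were picked for retests). Of about 18,000 compounds tested this way, about 170 (0.94%) reached 50% or more in at least one test.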

The filed quantity is “Percent Effect” (%).
The controls that fix the scale are not given in the record; negative values are as filed.
The compounds are a random part of those screened.

compound	Percent Effect
COCCCC(=O)N1CCN(CC(C)O)CC1 (centres unmarked)	-3.778
COc1ccc(OC)c(NC(=O)N2CC(C)(OC)C2)c1	3.541
CCNC(C)(C)C(=O)N(C)Cc1ccc(OC)c(F)c1	94.51
O=C(Nc1ccc2[nH]ncc2c1)C1CCC1	-25.13
COCCCn1ccc(Nc2ncccc2C#N)n1	0.8481
CC(C)=CCCNC(=O)N1CCCC(CO)C1 (centres unmarked)	-2.928
Cc1nc(C(=O)NCCc2nncn2C(C)C)cs1	-23.76
OC[C@@H]1CCCN1Cc1ccc(F)c2cccnc12	78.15
OCCOc1cccc(C(F)(F)F)n1	12.03
N#CCc1ccc(CO)cc1	-0.5268
CC(Cn1cccn1)NC(=O)NCCn1ccnc1 (centres unmarked)	39.25
O=C(NC(CO)Cc1ccc(F)cc1)c1cnsn1 (centres unmarked)	-6.273
CCS(=O)(=O)N1CCC2(CC1)OCCO2	-15.39
COc1cccc(CN)n1	3.03
CN(CCN)CC1CCCOC1 (centres unmarked)	0.4869
CC(=O)c1cccc(COC(=O)c2cccnc2)c1	11.42
CN1CCCN(Cc2nc(C3CCOC3)no2)CC1 (centres unmarked)	-1.934
CCc1noc(C)c1C(=O)Nc1cccnc1	-7.374
Cn1nc2c(c1CN)CCCC2	29.78
CC(=O)c1ccc(S(C)(=O)=O)c(N(C)CCC2CC2)c1	-1.647
O=C(C1CCNCC1)N1CCCC1	-19.77
CC(C)n1nc(C(=O)N(C)C)c2ccccc2c1=O	-8.364
Cc1nnc(CN)s1	-6.732
CC(NC(=O)NCCCN1CCCC1=O)c1ccco1 (centres unmarked)	-1.872
CC1(c2ccc(F)cc2)CC(=O)NC1=O (centres unmarked)	-1.069
NC1CCN(c2ccc(C(F)(F)F)cn2)CC1	7.702
NC(=O)CCC(=O)c1ccc2c(c1)OCCO2	-23.48
Clc1ccc2oc(N3CCNCC3)nc2c1	3.434
CC(=O)NC1CNC1	3.952
COc1ccccc1CCNC1CCN(C(C)=O)CC1	-10.23
O=C(N[C@@H]1CCNC[C@H]1O)c1ccc2ncccc2c1	13.35
CC(=O)c1ccc(NC(=O)N2CC[C@H]3CNC[C@H]32)cc1	6.631
CN(C)C(=O)CN1CCCC1c1ccsc1 (centres unmarked)	-14.47
Cc1ccc(CCC(=O)N2CC[C@H](N)C2)c(C)c1	-4.294
CCC1(CO)CCCN(CC(=O)Nc2ccn(C)n2)C1 (centres unmarked)	7.652
NCc1cc(Oc2ccc(F)cc2)ccn1	5.831
CCn1ncc2c1CCCC2N (centres unmarked)	10.87
O=C1CCC(=O)N1CCOc1cccc(F)c1	-2.111
NCc1cccc2cc[nH]c12	-8.964
O=C1CNCN1Cc1ccccc1	2.533
Cn1ncnc1NC(=O)c1ccc(Br)cn1	2.196
CCOC(=O)CCN(CC1CC1)C(=O)c1ccccn1	4.369
O=C(CCS(=O)(=O)c1ccccc1)Nc1ncccn1	-8.942
CCNC(=O)COc1cccc(NC2CCCOC2)c1 (centres unmarked)	-0.1809
CCNC(=O)N1CCNCC1	13.83
NCC(CO)Cc1ccncc1 (centres unmarked)	21.7
O=C(C1CCCN1)N1CCN(c2ccccc2F)CC1 (centres unmarked)	9.706
COCCN1CCCN(Cc2ccc(C)o2)CC1=O	2.135
O=C1CCCCN1Cn1cc(I)cn1	6.329
Cc1ccoc1C(=O)N1CCC2(CCC2O)CC1 (centres unmarked)	-20.96
CC(C)C(CC(=O)NCC(N)=O)c1ccccc1 (centres unmarked)	0.4392
CCCNC1CCCc2cccnc21 (centres unmarked)	2.27
CCCC(=O)N(C)CCC(N)C(C)C (centres unmarked)	-3.825
CC(O)c1nnc[nH]1 (centres unmarked)	-9.07
CN1CCCN(C(=O)CCc2ccsc2)CC1	14.55
NCC(CO)Cc1ccc(Cl)cc1 (centres unmarked)	24.66

The last 3 entries again:

{"compound": "CC(O)c1nnc[nH]1", "stereo": "centres unmarked", "Percent Effect": -9.07}
{"compound": "CN1CCCN(C(=O)CCc2ccsc2)CC1", "Percent Effect": 14.55}
{"compound": "NCC(CO)Cc1ccc(Cl)cc1", "stereo": "centres unmarked", "Percent Effect": 24.66}

From ChEMBL document CHEMBL3988442, “University of Dundee, Small-Polar-MMV Screening Library” (2021).